Data as given in PubChem BioAssay AID1259272 (Sanger Institute, 2017)

Aim: 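Kinase knock-downs lethal to colorectal cancer cells, with or without anchor drugs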 (primary screen)
System: SW1116 human colorectal cancer cells
Reagent: siRNA pool against human genes
Treatment: anchor drugs BYL719 (1 µM), cetuximab (5 µg/ml) or trametinib (10 nM), or DMSO vehicle; exposure length not given
Measured: 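Replicate-averaged viability versus control-pool wells, with a robust z-score for siRNA alone and a per-drug synergy score (BYL719, cetuximab, trametinib)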
Reading the numbers: viability z-score, no drug: higher = more cells remaining; strongly negative means essential gene; viability, no drug: higher = more viable cells; synergy score with BYL719 and synergy score with cetuximab and synergy score with trametinib: higher = stronger synthetic-lethal synergy with the drug
Call rule: 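a robust z-score under -3 with siRNA and no drug marks the gene essential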
Calls: active = essential (knock-down alone); inactive = no change
Here is one part, drawn at random, of 794 deposited reagents. 7 of them (0.88%) count as active. 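Essential calls reflect knock-down without drug only, not synergy with drugs; drug exposure length not given.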 A number with no mark means an inactive call. No viability above 1 is reported: the scale is capped. Not given: the amount of reagent, the time to read-out.

| gene symbol | PubChem SID | viability z-score, no drug | viability, no drug (fraction of control) | synergy score with BYL719 | synergy score with cetuximab | synergy score with trametinib |
| --- | --- | --- | --- | --- | --- | --- |
| FXN (frataxin) | SID56479078 | 0.842 | 1 | -0.0179 | -0.0536 | 0.00554 |
| NEK7 (NIMA related kinase 7) | SID56478729 | 0.842 | 1 | -0.0788 | 0.0374 | -0.112 |
| MAST1 (microtubule associated serine/threonine kinase 1) | SID135620865 | 0.842 | 1 | -0.0585 | 0.00572 | -0.0738 |
| UCK1 (uridine-cytidine kinase 1) | SID56478768 | 0.842 | 1 | -0.0729 | -0.0713 | -0.249 |
| NF1 (neurofibromin 1) | SID152155944 | -0.463 | 0.861 | -0.026 | -0.0625 | 0.0385 |
| IP6K3 (inositol hexakisphosphate kinase 3) | SID135621241 | -0.991 | 0.805 | -0.0437 | 0.0101 | 0.136 |
| CSNK1G3 (casein kinase 1 gamma 3) | SID152152817 | 0.37 | 0.95 | 0.209 | -0.0278 | 0.138 |
| DAPK2 (death associated protein kinase 2) | SID152156399 | 0.263 | 0.938 | 0.0128 | -0.133 | -0.000209 |
| THNSL1 (threonine synthase like 1) | SID152147285 | 0.842 | 1 | -0.0515 | -0.0131 | 0.0728 |
| NEK2 (NIMA related kinase 2) | SID56478772 | -0.418 | 0.866 | -0.0664 | -0.017 | -0.0217 |
| MAPK3 (mitogen-activated protein kinase 3) | SID135620708 | 0.35 | 0.948 | -0.022 | 0.073 | 0.185 |
| MAP2K6 (mitogen-activated protein kinase kinase 6) | SID135620765 | -0.697 | 0.836 | -0.0439 | -0.0112 | 0.0317 |
| JAK1 (Janus kinase 1) | SID152154758 | 0.19 | 0.931 | 0.034 | 0.076 | 0.121 |
| CDK7 (cyclin dependent kinase 7) | SID152150057 | 0.842 | 1 | -0.0302 | 0.0804 | -0.0217 |
| ACVR1 (activin A receptor type 1) | SID152154539 | 0.842 | 1 | 0.0111 | -0.0757 | 0.134 |
| PFKFB1 (6-phosphofructo-2-kinase/fructose-2,6-biphosphatase 1) | SID135621245 | -0.0862 | 0.901 | 0.0293 | 0.134 | 0.107 |
| PFKFB4 (6-phosphofructo-2-kinase/fructose-2,6-biphosphatase 4) | SID152152940 | 0.773 | 0.993 | -0.0856 | 0.0539 | 0.107 |
| PRPS1 (phosphoribosyl pyrophosphate synthetase 1) | SID56479145 | -0.33 | 0.875 | 0.0913 | -0.0498 | 0.143 |
| PCBP1 (poly(rC) binding protein 1) | SID134316528 | -0.904 | 0.814 | -0.218 | -0.0496 | 0.0611 |
| STRADA (STE20 related adaptor alpha) | SID152149670 | 0.461 | 0.959 | -0.0217 | -0.000783 | -0.0485 |

Already shown: 2 of the entries above.
| gene symbol | PubChem SID | viability z-score, no drug | viability, no drug (fraction of control) | synergy score with BYL719 | synergy score with cetuximab | synergy score with trametinib |
| --- | --- | --- | --- | --- | --- | --- |
| MAST1 (microtubule associated serine/threonine kinase 1) | SID135620865 | 0.842 | 1 | -0.0585 | 0.00572 | -0.0738 |
| UCK1 (uridine-cytidine kinase 1) | SID56478768 | 0.842 | 1 | -0.0729 | -0.0713 | -0.249 |
